Experimental data published in doi:10.64898/2025.12.13.693833 (bioRxiv, 2025).
Substitutions are numbered along the chain they refer to. Results are given in words; binding and its absence hold for the method and conditions named. Sequences can lack the tags named with a protein.

By UniProt entry, the sequences of proteins in these tests, tags left out. Where a name states a change or a piece, a line headed by the entry shows the natural chain unless it says otherwise. Residues count along the entry.
UniProt P67775, residues 2-309: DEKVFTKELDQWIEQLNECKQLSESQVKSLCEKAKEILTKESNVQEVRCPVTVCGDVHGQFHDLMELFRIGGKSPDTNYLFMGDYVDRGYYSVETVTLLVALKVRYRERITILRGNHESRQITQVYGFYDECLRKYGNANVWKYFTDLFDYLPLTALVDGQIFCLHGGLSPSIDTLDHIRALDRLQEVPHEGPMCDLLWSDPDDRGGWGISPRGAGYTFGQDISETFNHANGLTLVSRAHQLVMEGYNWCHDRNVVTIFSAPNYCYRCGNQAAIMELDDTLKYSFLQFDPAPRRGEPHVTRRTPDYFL
UniProt P30153: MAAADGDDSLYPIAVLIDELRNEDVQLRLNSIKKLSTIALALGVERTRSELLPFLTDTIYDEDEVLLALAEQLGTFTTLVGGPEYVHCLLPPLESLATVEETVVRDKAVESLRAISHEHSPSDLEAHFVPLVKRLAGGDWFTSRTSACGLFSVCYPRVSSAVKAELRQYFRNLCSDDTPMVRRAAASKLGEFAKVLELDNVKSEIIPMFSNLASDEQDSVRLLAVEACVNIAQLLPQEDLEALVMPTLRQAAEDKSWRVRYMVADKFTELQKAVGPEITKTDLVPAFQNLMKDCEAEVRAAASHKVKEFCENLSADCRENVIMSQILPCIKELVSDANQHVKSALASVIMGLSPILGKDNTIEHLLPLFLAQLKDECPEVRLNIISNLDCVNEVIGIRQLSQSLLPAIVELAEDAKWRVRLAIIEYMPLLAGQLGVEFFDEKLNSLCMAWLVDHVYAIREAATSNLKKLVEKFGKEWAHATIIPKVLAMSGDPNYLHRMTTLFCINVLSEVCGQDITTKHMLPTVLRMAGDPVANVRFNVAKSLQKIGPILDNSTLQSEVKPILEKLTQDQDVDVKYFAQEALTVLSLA

Tests used:
GST-ENSA^WT-His6 (human) = molecular target: T1, GST-ENSA^WT-His6 (human) (UniProt O43768); experiment: BLI
T1 sequence: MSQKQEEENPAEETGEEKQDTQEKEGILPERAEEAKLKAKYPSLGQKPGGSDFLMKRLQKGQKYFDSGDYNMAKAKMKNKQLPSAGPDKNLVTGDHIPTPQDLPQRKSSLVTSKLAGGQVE

[1] = molecular target: T2, GST-ENSA^S67D-His6 (human) (UniProt O43768); experiment: BLI
T2 sequence: T1 sequence with S67D

Row | Substance | binding (GST-ENSA^WT-His6 (human)) | binding [1]
1 | PP2A Cα subunit (from UniProt P67775 2-309) (enzyme) | no binding | 
2 | PP2A-AC core enzyme (from UniProt P30153 1-589; P67775 2-309) (complex) | no binding | no binding
